# Among all 300,000 compounds or so, about 3,700 (1.2%) were called active. The shares of active, inactive and inconclusive entries below differ from those in the screen. Calls come from the whole dose curve; tested in HEK293 cells. Potencies of inconclusive entries are doubtful fits and often do not repeat.
# Test: qHTS for Inhibitors of binding or entry into cells for Lassa Virus; note: nearly all actives have a fitted effect of over 50% in size
# Conditions: Lassa virus pseudotype entry inhibition, cell reporter; activity change, negative = inhibition: at 37.9 µM (top of the series) unless noted
# % is set by controls: 0 for no effect and ±100 for the full control effect; potency is the fitted concentration of half-maximal effect.
Compound,Potency,"activity change, negative = inhibition"
Cc1cc(C)cc(N(C(=O)c2csnn2)C(C(=O)NC2CCCC2)c2ccccn2)c1 (configuration not stated),"inconclusive: 6.31 µM [inhibitor, single point]",–
Cn1cccc1C(=O)NNC(=O)c1ccccc1Br,"inconclusive: 1.26 µM [activator, single point]",–
COc1cccc(-n2ncc3c(NN=Cc4cccc(F)c4)ncnc32)c1,"inconclusive: 31.5 µM [inhibitor, single point]",–
CC1CC(C)CN(C(=O)c2ccc3ncsc3c2)C1 (configuration not stated),"inconclusive: 1.41 µM [inhibitor, partial curve, poor fit]",–
Cc1cc(C)cc(-n2c(C)cc(/C=N/NC(=O)CSc3ncccn3)c2C)c1,"inconclusive: 18.3 µM [inhibitor, partial curve]",–
CCOC(=O)C1=C(C)N(C)C(=S)NC1c1ccccc1 (configuration not stated),"inconclusive: 5.62 µM [inhibitor, single point]",–
COc1ccc(/C=N/NC(=O)c2ccco2)cc1Cn1nc(C)cc1C,–,inactive: 10.2%
O=c1c2ccccc2nc(-c2ccoc2)n1CCc1ccccc1,"inconclusive: 28.2 µM [inhibitor, single point]",–
O=C(NCc1ccco1)C(c1ccco1)N(Cc1cccs1)C(=O)Cn1nnc2ccccc21 (configuration not stated),"inconclusive: 3.16 µM [inhibitor, single point]",–
CC(C)c1nc(SCC(=O)Nc2ccc(N3CCOCC3)cc2)c2ccccc2n1,"inconclusive: 23.1 µM [inhibitor, partial curve, poor fit]",–
Cc1cccc(C)c1OCC(=O)Nc1nc(-c2ccc(Br)cc2)ns1,–,inactive: 20.2% [at 46.1 µM]
Cc1cc(C)c(Cn2c3ccccc3c3cnn(CC(=O)N4CCCCCC4)c(=O)c32)c(C)c1,"inconclusive: 1 µM [inhibitor, full curve, poor fit]",–
Cc1ccc(-c2cc(C(F)(F)F)n3nc(C(=O)Nc4ccc(Cl)c(C(F)(F)F)c4)cc3n2)cc1,–,inactive: 4.91% [at 46.1 µM]
Cc1sc(N/N=C/c2cccnc2)nc1-c1ccc(Cl)cc1,"inconclusive: 20.6 µM [inhibitor, single point]",–
Cc1ccc(NC(=O)COc2ccccc2[N+](=O)[O-])nc1,"inconclusive: 17.8 µM [inhibitor, single point]",–
COc1ccc(NC(=O)Cn2nnc(-c3ccccc3NS(=O)(=O)c3ccc(OC)cc3)n2)cc1,"inconclusive: 1.3 µM [inhibitor, full curve, poor fit]",–
Cc1cccc(-n2c(-c3ccccc3)cn3c4c(=O)[nH]c(=O)n(C)c4nc23)c1,"inconclusive: 8.91 µM [inhibitor, partial curve]",–
CCN1CCN(S(=O)(=O)c2ccc(Cl)c(C(=O)N(C)C(c3ccccc3)c3ccccc3)c2)CC1,"inconclusive: 17.8 µM [inhibitor, single point]",–
Cc1ccc(S(=O)(=O)NCC(=O)OCC(=O)NCc2cccs2)cc1,–,inactive: 0.325%
COc1ccccc1NS(=O)(=O)c1ccc(NN=C2CCCCC2)c([N+](=O)[O-])c1,"inconclusive: 0.411 µM [inhibitor, partial curve, poor fit]",–
CCc1ccc(NC(=O)CCC(=O)Nc2nnc(C(F)(F)F)s2)cc1,–,inactive: 10.2% [at 46.1 µM]

Compound,Potency,"activity change, negative = inhibition"
Cc1c(Br)c([N+](=O)[O-])nn1C(C)C(=O)N1CCCc2ccccc21 (configuration not stated),–,inactive: -13.8%
COc1ccc(NC(=O)C(c2ccc(Cl)cc2)C(C)C)cn1 (configuration not stated),"inconclusive: 35.5 µM [inhibitor, partial curve, poor fit]",–
CN(CC1CCCO1)S(=O)(=O)c1ccc(C(=O)Nc2ccc([N+](=O)[O-])cc2)cc1 (configuration not stated),"inconclusive: 20 µM [inhibitor, partial curve, poor fit]",–
CC1=C(C(=O)Nc2cccc(C)n2)C(c2ccc3c(c2)OCO3)C2=C(CC(c3ccco3)CC2=O)N1 (configuration not stated),"inconclusive: 35.5 µM [inhibitor, single point]",–
O=C(NC1CCN(S(=O)(=O)c2ccccc2)CC1)c1cccc(F)c1,"inconclusive: 0.891 µM [inhibitor, single point]",–
O=C(NCC(c1cccs1)N1CCOCC1)c1ccccc1NS(=O)(=O)c1ccc(Cl)cc1 (configuration not stated),"inconclusive: 7.94 µM [inhibitor, partial curve, poor fit]",–
CCc1c(C(=O)NNC(=S)NCc2ccccc2)csc1C,–,inactive: -21%
COC(=O)c1ccc(Cn2cnc3c(sc4nc(N5CCOCC5)c5c(c43)CCCC5)c2=O)o1,"inconclusive: 35.5 µM [inhibitor, single point]",–
O=C(NCc1ccc(Cl)cc1)C(=O)Nc1ccc(Br)cc1,–,inactive: -17.3% [at 46.1 µM]
COC(=O)c1c(NC(=O)c2ccc(C)o2)sc2c1CCCCC2,"inconclusive: 6.31 µM [activator, single point]",–
CC(C)(C)c1ccc(OCc2nc(-c3ccccn3)no2)c(Br)c1,"inconclusive: 29.1 µM [inhibitor, single point]",–
CN(C(=O)CSc1nc2cc([N+](=O)[O-])ccc2n1-c1ccc(F)cc1)C1CCS(=O)(=O)C1 (configuration not stated),–,inactive: 2.78%
FC(F)(F)Oc1ccccc1-c1nnc(-c2cccc(C(F)(F)F)c2)o1,–,inactive: 1.43%
Cn1c(SCC(=O)Nc2ccccc2F)nc2c(c1=O)SCC2,–,inactive: 1.26%
COc1cccc(N2CCN(C(=O)c3cnn(C(C)(C)C)c3C3CCN(C(=O)OC(C)(C)C)CC3)CC2)c1,–,inactive: 0.659% [at 46.1 µM]
Cc1ccc(NC(=O)CSc2nc3ncccc3[nH]2)cc1F,"inconclusive: 35.5 µM [activator, single point]",–
COc1ccc(S(=O)(=O)N2CCC(C(=O)Nc3ccc(S(=O)(=O)N4CCCC4)cc3)CC2)cc1OC,"inconclusive: 31.6 µM [inhibitor, single point]",–
Nc1cccc(-c2cn3cccnc3n2)c1,"inconclusive: 35.5 µM [inhibitor, single point]",–
O=C(O)CNC(=O)c1ccc2c(c1)OCCO2,–,inactive: 9%
COc1cc(OC)cc(C(=O)N2CCN(C3CCN(Cc4ccccc4)CC3)CC2)c1,"inconclusive: 4.61 µM [inhibitor, full curve, poor fit]",–
O=C(Nc1ccccn1)c1ccc(S(=O)(=O)N2CCCCCC2)cc1,–,inactive: 3.37%

# Entries of single compounds, looked up by structure.
# Nc1cccc(-c2cn3cccnc3n2)c1 is listed with Potency: inconclusive: 35.5 µM [inhibitor, single point]
# COC(=O)c1c(NC(=O)c2ccc(C)o2)sc2c1CCCCC2 is listed with Potency: inconclusive: 6.31 µM [activator, single point]
